The text below walks through data of paper PMC5282884.

For at least one entry, the source does not settle the construct or the ends of the probe. Negatives hold for the conditions tested. At least one verdict rests on a figure or table, not on a statement of the authors.

This data set deals with RORβ (retinoic acid-related orphan receptor beta). The experiment in a line: EMSA. The following applies: Pierce EMSA kit, 30 min incubation, 6% PAGE, biotin/streptavidin-HRP ECL detection, pH and temperature not stated, recombinant protein, label: 5'-biotin on both strands.

For “GATCACGAGAGATCGAGACCATCCTG (double strand) [HBP1 HRE Mut3]”, the binding result (AGGTCA stated essential for binding) was “no binding”. “GATCACGAGGTCAAGAGATCGAGACCATCCTG (double strand) [HBP1 upstream HRE WT]”: the binding result is “binds”.
